Measurements published in the supplement of paper PMC11732987, “Enantioselective OTUD7B fragment discovery through chemoproteomics screening and high-throughput optimisation” (Communications Chemistry, 2025).
This is one part of the list. The data scatter; read single values as rough.

Amino acid sequences for entries named in this document (tags omitted). A change or cut given only in a name is not applied to a line headed by its entry. Residues count along the entry.
UniProt P43003, whole entry, looked up: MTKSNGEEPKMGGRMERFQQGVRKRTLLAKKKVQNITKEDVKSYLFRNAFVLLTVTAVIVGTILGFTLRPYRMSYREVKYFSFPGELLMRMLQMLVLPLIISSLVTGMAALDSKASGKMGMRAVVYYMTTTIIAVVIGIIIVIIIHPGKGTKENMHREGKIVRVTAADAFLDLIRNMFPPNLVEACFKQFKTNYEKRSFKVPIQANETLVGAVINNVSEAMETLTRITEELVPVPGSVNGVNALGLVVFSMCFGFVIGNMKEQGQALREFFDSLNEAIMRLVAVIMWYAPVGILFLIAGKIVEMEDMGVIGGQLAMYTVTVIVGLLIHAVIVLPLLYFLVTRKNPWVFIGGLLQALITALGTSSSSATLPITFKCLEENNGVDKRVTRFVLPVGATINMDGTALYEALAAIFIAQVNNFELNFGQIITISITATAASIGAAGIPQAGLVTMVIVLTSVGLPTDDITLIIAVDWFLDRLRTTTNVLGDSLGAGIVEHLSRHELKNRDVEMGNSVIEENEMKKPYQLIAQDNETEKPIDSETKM
UniProt Q8IX90, 276-295: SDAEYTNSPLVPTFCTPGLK
UniProt Q8IX90, whole entry, looked up: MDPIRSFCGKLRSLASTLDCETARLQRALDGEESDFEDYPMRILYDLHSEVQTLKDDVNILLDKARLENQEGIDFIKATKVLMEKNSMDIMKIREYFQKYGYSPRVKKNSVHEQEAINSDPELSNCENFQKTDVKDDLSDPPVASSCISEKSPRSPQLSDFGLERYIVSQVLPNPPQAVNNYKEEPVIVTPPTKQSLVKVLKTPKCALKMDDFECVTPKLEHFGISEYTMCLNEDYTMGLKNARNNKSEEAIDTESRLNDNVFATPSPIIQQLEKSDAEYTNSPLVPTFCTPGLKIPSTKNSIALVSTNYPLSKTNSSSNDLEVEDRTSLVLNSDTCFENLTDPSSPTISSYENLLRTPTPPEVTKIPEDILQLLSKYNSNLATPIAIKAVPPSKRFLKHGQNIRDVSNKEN
UniProt P51531: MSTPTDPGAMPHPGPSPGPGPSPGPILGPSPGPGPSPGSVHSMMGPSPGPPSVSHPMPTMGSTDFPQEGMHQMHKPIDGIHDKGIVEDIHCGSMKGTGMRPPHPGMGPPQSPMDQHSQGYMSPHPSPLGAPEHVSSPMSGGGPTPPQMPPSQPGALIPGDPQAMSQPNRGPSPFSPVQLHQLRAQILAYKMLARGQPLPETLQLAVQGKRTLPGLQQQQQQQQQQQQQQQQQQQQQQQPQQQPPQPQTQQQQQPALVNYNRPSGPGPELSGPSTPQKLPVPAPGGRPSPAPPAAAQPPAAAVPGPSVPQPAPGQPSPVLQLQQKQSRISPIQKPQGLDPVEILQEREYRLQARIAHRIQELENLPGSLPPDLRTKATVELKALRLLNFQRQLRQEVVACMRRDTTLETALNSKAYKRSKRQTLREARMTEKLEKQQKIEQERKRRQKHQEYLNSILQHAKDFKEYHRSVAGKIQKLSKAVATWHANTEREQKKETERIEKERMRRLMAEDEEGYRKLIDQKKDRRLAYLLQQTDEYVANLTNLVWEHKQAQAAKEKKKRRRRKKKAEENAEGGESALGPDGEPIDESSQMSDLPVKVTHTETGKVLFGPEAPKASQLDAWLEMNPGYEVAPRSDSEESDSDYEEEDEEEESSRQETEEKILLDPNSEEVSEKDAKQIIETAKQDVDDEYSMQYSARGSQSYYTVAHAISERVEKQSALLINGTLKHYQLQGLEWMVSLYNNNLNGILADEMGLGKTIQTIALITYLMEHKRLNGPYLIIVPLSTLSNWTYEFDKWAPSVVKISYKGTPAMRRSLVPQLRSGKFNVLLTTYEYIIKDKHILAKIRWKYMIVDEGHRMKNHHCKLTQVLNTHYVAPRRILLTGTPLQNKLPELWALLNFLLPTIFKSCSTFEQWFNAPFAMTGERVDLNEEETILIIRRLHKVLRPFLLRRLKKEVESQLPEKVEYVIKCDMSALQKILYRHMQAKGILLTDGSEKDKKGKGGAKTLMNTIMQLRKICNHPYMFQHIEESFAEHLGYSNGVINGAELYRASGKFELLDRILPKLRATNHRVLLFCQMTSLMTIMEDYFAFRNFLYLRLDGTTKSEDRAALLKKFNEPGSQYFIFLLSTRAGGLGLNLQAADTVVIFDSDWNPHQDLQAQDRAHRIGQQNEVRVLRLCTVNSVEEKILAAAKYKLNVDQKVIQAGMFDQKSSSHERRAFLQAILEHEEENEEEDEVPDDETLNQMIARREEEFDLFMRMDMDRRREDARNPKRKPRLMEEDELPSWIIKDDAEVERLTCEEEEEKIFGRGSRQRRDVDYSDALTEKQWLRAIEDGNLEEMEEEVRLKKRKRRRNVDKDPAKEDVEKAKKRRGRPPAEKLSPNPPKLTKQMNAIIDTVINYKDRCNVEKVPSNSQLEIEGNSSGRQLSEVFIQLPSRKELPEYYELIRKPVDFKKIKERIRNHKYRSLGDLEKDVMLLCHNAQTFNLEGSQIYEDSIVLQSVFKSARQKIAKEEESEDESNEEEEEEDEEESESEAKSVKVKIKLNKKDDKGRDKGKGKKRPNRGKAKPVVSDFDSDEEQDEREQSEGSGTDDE
UniProt O00161: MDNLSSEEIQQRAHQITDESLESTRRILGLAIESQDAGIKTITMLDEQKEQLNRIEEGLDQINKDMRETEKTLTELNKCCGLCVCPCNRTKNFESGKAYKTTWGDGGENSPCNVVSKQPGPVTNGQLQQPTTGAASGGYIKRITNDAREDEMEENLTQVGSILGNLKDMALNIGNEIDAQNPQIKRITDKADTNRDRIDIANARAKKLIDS
UniProt Q8N0X7, 389-414: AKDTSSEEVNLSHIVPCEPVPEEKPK
UniProt Q15477: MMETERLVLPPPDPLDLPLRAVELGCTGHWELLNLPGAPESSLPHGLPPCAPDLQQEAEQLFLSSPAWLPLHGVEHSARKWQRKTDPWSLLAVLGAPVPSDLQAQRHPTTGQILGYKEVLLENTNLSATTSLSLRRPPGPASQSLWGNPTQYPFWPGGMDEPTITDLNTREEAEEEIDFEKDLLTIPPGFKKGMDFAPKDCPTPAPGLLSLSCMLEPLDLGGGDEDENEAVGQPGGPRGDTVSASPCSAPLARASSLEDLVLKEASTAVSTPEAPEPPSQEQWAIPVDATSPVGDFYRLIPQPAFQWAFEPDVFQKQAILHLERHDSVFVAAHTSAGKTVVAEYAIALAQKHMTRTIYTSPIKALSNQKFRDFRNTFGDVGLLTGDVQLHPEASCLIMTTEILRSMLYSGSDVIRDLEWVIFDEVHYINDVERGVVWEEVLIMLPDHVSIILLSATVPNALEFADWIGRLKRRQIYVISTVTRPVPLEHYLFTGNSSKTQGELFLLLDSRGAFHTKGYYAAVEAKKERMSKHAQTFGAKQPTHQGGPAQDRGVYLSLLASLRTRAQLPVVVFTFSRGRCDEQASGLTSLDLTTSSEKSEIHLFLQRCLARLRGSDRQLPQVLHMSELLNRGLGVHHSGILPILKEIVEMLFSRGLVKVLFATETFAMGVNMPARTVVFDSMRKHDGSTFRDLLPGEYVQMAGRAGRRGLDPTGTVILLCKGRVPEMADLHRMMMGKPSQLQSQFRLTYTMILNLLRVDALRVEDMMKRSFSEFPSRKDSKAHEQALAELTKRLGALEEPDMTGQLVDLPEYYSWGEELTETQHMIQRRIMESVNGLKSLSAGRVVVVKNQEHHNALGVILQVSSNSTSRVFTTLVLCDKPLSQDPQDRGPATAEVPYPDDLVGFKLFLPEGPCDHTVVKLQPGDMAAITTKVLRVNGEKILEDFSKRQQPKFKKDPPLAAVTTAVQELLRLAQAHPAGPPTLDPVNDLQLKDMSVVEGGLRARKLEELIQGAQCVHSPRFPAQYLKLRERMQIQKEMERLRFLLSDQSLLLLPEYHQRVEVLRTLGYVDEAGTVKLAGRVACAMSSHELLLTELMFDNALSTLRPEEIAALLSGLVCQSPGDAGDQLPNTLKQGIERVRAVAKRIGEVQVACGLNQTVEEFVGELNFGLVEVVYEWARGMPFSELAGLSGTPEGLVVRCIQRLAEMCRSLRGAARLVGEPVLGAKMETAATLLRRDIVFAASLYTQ
UniProt P50443: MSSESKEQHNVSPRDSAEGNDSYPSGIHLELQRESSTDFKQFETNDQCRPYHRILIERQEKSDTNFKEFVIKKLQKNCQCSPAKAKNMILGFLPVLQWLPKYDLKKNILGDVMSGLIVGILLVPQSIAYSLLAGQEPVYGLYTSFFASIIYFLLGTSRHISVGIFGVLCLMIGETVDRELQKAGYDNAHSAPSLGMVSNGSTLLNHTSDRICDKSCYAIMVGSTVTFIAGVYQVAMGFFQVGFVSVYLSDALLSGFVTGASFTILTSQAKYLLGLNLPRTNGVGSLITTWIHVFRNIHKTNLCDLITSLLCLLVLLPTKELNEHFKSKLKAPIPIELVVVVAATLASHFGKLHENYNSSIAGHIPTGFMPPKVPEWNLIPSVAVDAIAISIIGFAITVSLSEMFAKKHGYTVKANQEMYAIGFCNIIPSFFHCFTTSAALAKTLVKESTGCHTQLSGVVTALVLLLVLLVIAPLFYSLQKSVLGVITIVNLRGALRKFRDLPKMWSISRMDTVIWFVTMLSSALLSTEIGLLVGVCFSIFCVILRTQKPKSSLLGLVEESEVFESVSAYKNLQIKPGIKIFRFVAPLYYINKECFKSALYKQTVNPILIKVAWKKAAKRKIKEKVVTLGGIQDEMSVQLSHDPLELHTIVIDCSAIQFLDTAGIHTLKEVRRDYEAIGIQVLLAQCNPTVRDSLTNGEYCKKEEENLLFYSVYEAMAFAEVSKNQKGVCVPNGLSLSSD
UniProt Q9Y289, 610-635: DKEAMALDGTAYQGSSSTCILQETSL
UniProt O60906: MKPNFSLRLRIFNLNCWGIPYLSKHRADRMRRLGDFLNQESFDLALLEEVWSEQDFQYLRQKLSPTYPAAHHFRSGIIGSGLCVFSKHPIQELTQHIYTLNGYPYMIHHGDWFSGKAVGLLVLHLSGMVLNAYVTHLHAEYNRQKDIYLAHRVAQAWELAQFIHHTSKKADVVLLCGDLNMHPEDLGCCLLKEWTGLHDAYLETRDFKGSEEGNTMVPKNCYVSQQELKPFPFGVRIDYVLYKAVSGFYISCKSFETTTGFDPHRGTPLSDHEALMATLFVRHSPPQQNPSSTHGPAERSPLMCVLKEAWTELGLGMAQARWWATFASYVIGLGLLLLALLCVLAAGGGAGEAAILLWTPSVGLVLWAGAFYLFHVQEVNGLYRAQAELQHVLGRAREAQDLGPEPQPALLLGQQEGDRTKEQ
UniProt P00441, whole entry, looked up: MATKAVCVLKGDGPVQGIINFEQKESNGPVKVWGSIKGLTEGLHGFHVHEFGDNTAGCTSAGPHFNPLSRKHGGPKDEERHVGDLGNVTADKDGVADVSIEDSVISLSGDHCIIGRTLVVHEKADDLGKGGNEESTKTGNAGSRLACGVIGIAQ
UniProt O60264, whole entry, looked up: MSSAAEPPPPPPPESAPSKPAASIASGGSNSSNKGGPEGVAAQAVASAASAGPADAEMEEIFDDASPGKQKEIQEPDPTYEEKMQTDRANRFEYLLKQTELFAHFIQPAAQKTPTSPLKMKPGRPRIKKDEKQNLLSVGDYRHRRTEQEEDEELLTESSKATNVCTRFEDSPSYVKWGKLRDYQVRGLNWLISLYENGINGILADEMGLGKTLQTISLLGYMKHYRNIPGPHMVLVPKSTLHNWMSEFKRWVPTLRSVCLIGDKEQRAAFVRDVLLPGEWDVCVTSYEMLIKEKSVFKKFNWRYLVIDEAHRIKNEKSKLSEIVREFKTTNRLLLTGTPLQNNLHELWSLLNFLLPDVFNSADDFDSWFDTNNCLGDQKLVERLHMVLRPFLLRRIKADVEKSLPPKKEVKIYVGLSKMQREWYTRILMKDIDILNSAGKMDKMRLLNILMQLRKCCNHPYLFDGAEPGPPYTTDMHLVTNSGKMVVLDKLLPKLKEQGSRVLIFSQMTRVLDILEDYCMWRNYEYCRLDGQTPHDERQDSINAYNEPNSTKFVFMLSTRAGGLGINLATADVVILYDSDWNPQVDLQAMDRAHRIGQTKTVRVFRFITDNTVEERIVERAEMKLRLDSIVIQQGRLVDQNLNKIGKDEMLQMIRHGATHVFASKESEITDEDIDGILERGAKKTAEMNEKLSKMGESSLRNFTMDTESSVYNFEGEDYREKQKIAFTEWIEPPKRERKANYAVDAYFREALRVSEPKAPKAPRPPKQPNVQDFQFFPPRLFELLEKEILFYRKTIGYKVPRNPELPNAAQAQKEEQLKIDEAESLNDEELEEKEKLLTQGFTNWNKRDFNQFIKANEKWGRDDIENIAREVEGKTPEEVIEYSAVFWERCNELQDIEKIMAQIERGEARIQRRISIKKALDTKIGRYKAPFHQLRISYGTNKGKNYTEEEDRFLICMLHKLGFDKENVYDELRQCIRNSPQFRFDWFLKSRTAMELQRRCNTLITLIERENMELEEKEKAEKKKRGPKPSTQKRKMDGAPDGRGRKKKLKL

Each target was assayed with ClCC(=O)N[C@@H]1CCCc2ccccc12 (assay: log2 mean competition ratio of IA-DTB cysteine labelling (DMSO/compound) (log2 ratio); higher = stronger cysteine engagement by compound). Details: 50 µM; treatment time: 4 h; cell line lysate: HEK293T.
Protocol: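 IA-DTB competitive cysteine chemoproteomics in HEK293T RIPA lysate. Lysates were treated with compound 29 or 30 at 50 or 200 µM for 4 h, then IA-DTB (500 µM, 1 h), trypsin-digested, NeutrAvidin-enriched and analysed by diaPASEF. Competition ratio = intensity DMSO / intensity compound (n=4 treated, n=64 DMSO); binding: mean log2 CR ≥ 1 and p ≤ 0.05 plus QC filters. Target is the cysteine site.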

| Target | log2 mean competition ratio |
| --- | --- |
| SMG9 C380 (UniProt Q9H0W8) | -0.0998 |
| SLC1A3 C375 (UniProt P43003) | 0.0509 |
| SMUG1 C131 (UniProt Q53HV7) | -0.0809 |
| SKA3 C290 (UniProt Q8IX90) | -0.0314 |
| SMARCD2 C355 (UniProt Q92925) | 0.042 |
| SMARCAD1 C575 (UniProt Q9H4L7) | 0.244 |
| SOS1 C167 (UniProt Q07889) | -0.111 |
| SMARCA2 C91 (UniProt P51531) | -0.0625 |
| SMARCAD1 C741 (UniProt Q9H4L7) | 0.643 |
| SMYD4 C380 (UniProt Q8IYR2) | -0.0846 |
| SLC2A4RG C322 | -0.182 |
| SLC1A1 C343 | 0.0248 |
| SMG8 C861 (UniProt Q8ND04) | -0.0482 |
| SNAP23 C112 (UniProt O00161) | -0.193 |
| SKA3 C215 (UniProt Q8IX90) | -0.00322 |
| SMAD2 C380 (UniProt Q15796) | 0.116 |
| SLC6A11 C80 | 0.41 |
| SNRNP200 C428 (UniProt O75643) | -0.138 |
| SKA1 C29 (UniProt Q96BD8) | 0.0367 |

| Target | log2 mean competition ratio |
| --- | --- |
| SKIL C268 (UniProt P12757) | -0.112 |
| SPART C405 (UniProt Q8N0X7) | -0.363 |
| SMC5 C726 (UniProt Q8IY18) | -0.136 |
| SKIV2L C913 (UniProt Q15477) | -0.0791 |
| SLC26A2 C48 (UniProt P50443) | -0.0403 |
| SMG5 C39 (UniProt Q9UPR3) | 0.082 |
| SMG8 C555 (UniProt Q8ND04) | 0.0876 |
| SMAD9 C61 (UniProt O15198) | 0.0498 |
| SKIV2L C579 (UniProt Q15477) | -0.0596 |
| SLC4A1AP C730 (UniProt Q9BWU0) | 0.0906 |
| SLC5A6 C628 (UniProt Q9Y289) | -0.149 |
| SMPD2 C304 (UniProt O60906) | 0.205 |
| SMG7 C476 (UniProt Q92540) | -0.0445 |
| SMYD2 C321 (UniProt Q9NRG4) | -0.338 |
| SOD1 C147 (UniProt P00441) | 0.0863 |
| SNX9 C427 (UniProt Q9Y5X1) | -0.00501 |
| SLC30A1 C469 (UniProt Q9Y6M5) | -0.176 |
| SMARCA5 C165 (UniProt O60264) | -0.0325 |

For convenience, part of the list above.

| Target | log2 mean competition ratio |
| --- | --- |
| SMC5 C726 (UniProt Q8IY18) | -0.136 |
| SKIV2L C913 (UniProt Q15477) | -0.0791 |
| SLC26A2 C48 (UniProt P50443) | -0.0403 |
